# Experimental data: PubChem BioAssay AID1259266 (Sanger Institute, 2017)
# Aim: 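Find knock-downs that kill LS123 cells or act with anchor drugs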 (primary screen)
# System: LS123 human colorectal cancer cells
# Reagents: siRNA pool against human genes
# Conditions: anchor drugs BYL719 (1 µM), cetuximab (5 µg/ml) or trametinib (10 nM), each chosen to barely slow growth alone; DMSO vehicle as the drug-free arm
# Detection: 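Viability relative to non-targeting control pools, replicate mean, with a robust z-score for knock-down alone and synergy scores for each anchor drug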
# Reading the numbers: robust z-score, knock-down alone: higher = more cells surviving after knock-down; viability, knock-down alone: higher = more viable cells; synergy score with trametinib: higher = stronger synthetic lethality with drug
# Hit rule: 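Essential when the robust z-score of the knock-down alone is below -3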
# Meaning of the calls: active = essential (knock-down alone cuts viability); inactive = no change
# Here is a random part of 794 reagents. In the full data, 16 (2%) were called active. 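Calls reflect knock-down alone, not drug synergy; viability seems capped at 1 and z-scores at 0.585.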 Further read-outs or replicates are left out here. Not stated in the record: the amount of reagent, the time to read-out.
target gene,"robust z-score, knock-down alone","viability, knock-down alone (fraction of control)",synergy score with trametinib,call
PAK6,0.585,1,0.0153,inactive
MAST4,0.585,1,-0.18,inactive
CDK10,0.585,1,0.0177,inactive
CHEK1,-5.33,0.649,-0.284,active
SGK2,0.585,1,-0.0714,inactive
TBK1,-0.0405,0.963,0.0306,inactive
CSNK1G2,0.117,0.972,-0.14,inactive
EIF2AK1,0.585,1,-0.106,inactive
CLK4,0.585,1,-0.0421,inactive
BRSK2,0.585,1,-0.126,inactive
ETNK1,0.351,0.986,-0.0943,inactive
NME2,0.585,1,-0.186,inactive
MOS,-0.521,0.934,-0.0667,inactive
PRKAG3,-1.93,0.851,-0.00453,inactive
MAP3K15,0.585,1,-0.068,inactive
ETNK2,-0.461,0.938,-0.0234,inactive
JAK1,0.585,1,-0.11,inactive
WHR1,0.585,1,-0.0668,inactive
DDR2,0.585,1,-0.0627,inactive
PDK1,-0.226,0.952,-0.135,inactive

Records listed so far whose gene name begins with E or e (3):
target gene,"robust z-score, knock-down alone","viability, knock-down alone (fraction of control)",synergy score with trametinib,call
EIF2AK1,0.585,1,-0.106,inactive
ETNK1,0.351,0.986,-0.0943,inactive
ETNK2,-0.461,0.938,-0.0234,inactive
